17 molecules from PubChem BioAssay AID210 (DTP/NCI, 2004) can be followed below.

The list shows only some results of the screen, not a fair sample: it is rich in T/C values a quarter to a half above the control, in often repeated tests (any T/C) and in doses without a T/C. Further doses and runs are listed elsewhere. T/C is the treated group as % of the vehicle group. Some doses have a count of surviving animals in place of a T/C: the source holds a T/C of zero for them, seemingly a mark for toxic or unscored doses. Some doses without a T/C left all or most animals alive at the check, yet need not have been tolerated: survival well below the control is almost never listed, so the zero probably covers shortened survival too. Counts of survivors are from the toxicity check (mostly the fifth day) where no day follows; animals may have died later. Schedule codes are those of the source, read here as Q, the interval in days (D) or hours (H), X, the number of doses. Some entries hold several experiments; their values stand side by side, smallest first. Where survival is the endpoint, the PubChem record calls one and a half times the control and up active, and a quarter to a half above the control has no call in these data; cut-offs in other NCI protocols can differ. *1 amine or outer side, *2 acyl side, *3 side chain or, on linkers, in order; H or OH if unused. Where a SMILES comes first, the peptide text is derived from it. Bridges are numbered along the chain shown (N, C = ends). Roman numbers before positions name the chains, in order. [ ]: non-standard residue; d: D form. Actinocin(1to9) = Cc1c2oc3c(C)ccc(C(=O)[*:2])c3nc-2c(C(=O)[*:1])c(N)c1=O; NMeV = CN[CH](C(=O)O)C(C)C; Aze = O=C(O)[CH]1CCN1; Sar = CNCC(=O)O

The assay relates to CD2F1 mice, ip Colon 26 adenocarcinoma, median survival T/C. The assay is described as follows: NCI In Vivo Anticancer Drug Screen. Data for tumor model Colon 26 Adenocarcinoma (intraperitoneal) in CD2F1 (CDF1) mice. The settings on record: T/C endpoint: median survival time, higher T/C = longer survival. On the procedure:
The antitumor activity of compounds was measured in mice bearing transplantable tumors. Survival or tumor size were measured and the results are expressed as the measurement made in the treated group (T) divided by the measurement made in the vehicle treated control group (C). The tumor model used in this assay is Colon 26 Adenocarcinoma (intraperitoneal) in CD2F1 (CDF1) mice

Where [1] appears, read: dose: 12.5 mg/kg/injection, schedule: Q04DX003 (ip), vehicle: Klucel (hydroxypropylcellulose) (HPC).

Take `Cc1c2oc3c(C)ccc(C(=O)NC4C(=O)NC(C(C)C)C(=O)N5CCCC5C(=O)N(C)CC(=O)N(C)C(C(C)C)C(=O)OC4C)c3nc-2c(C(=O)NC2C(=O)NC(C(C)C)C(=O)N3CCC3C(=O)N(C)CC(=O)N(C)C(C(C)C)C(=O)OC2C)c(N)c1=O` (centres undefined) (I: TV[Aze][Sar][NMeV] / II: TVP[Sar][NMeV]; ester I:1-I:C, II:1-II:C; linker I:N-II:N via Actinocin(1to9); configuration not given here): the T/C runs as follows: (dose: 0.39 mg/kg/injection, schedule: Q04DX003 (ip), vehicle: saline + alcohol) 138 % of control; (dose: 1.08 mg/kg/injection, schedule: Q04DX003 (ip), vehicle: saline + alcohol) 132 % of control. For the same molecule, the survivor count is reported as 10 of 10 (dose: 1.8 mg/kg/injection, schedule: Q04DX003 (ip), vehicle: saline + alcohol); 8 of 8 (dose: 1250.0 micrograms/kg/injection, schedule: Q04DX003 (ip), vehicle: saline + alcohol); 2 of 8 (dose: 1500.0 micrograms/kg/injection, schedule: Q01DX001 (ip), vehicle: saline + alcohol); 3 of 8 (dose: 3000.0 micrograms/kg/injection, schedule: Q01DX001 (ip), vehicle: saline + alcohol).

`CCC1(O)CC2CN(CCc3c([nH]c4ccccc34)C(C(=O)OC)(c3cc4c(cc3OC)N(C)C3C(O)(C(N)=O)C(O)C5(CC)C=CCN6CCC43C65)C2)C1` (centres undefined) (tested in a mixture with another compound): the T/C (dose: 4.0 mg/kg/injection, schedule: Q04DX002 (ip), vehicle: water) is 125 % of control.

In the case of `CC(=O)O[C@@H]1[C@@H](O)C2=C3[C@]4(C)[C@@H]1C(C)(C)C(=O)C[C@@H]4[C@]3(O)[C@H](OC(C)=O)[C@@]1(C[C@@H]1C)C2=O`, the T/C (dose: 12.5 mg/kg/injection, schedule: Q04DX003 (ip), vehicle: saline with Tween-80) was 125 % of control. In addition, the survivor count is 7 of 10 (dose: 100.0 mg/kg/injection, schedule: Q04DX003 (ip), vehicle: distilled water + Tween-80); 2 of 10 (dose: 200.0 mg/kg/injection, schedule: Q04DX003 (ip), vehicle: distilled water + Tween-80); 7 of 10 (dose: 200.0 mg/kg/injection, schedule: Q04DX003 (ip), vehicle: saline with Tween-80).

For the molecule `Nc1nc([Se])c2ncn(C3OC(CO)C(O)C3O)c2n1` (centres undefined), the survivor count reads like this: (dose: 128.0 mg/kg/injection, schedule: Q04DX003 (ip), vehicle: saline) 0 of 10; (dose: 128.0 mg/kg/injection, schedule: Q04DX003 (ip), vehicle: suspension in saline) 3 of 10.

With `CCCCCCCC(=O)OCC(=O)[C@]1(O)Cc2c(O)c3c(c(O)c2[C@@H](OC2CC(N)C(O)C(C)O2)C1)C(=O)c1c(OC)cccc1C3=O` (some centres undefined), the survivor count was 7 of 10 (dose: 11.0 mg/kg/injection, schedule: Q07DX003 (iv), vehicle: saline) and 10 of 10 (dose: 17.0 mg/kg/injection, schedule: Q07DX003 (iv), vehicle: saline).

With `Cc1c(N)nc([C@H](CC(N)=O)NC[C@H](N)C(N)=O)nc1C(=O)N[C@H](C(=O)N[C@H](C)[C@@H](O)[C@H](C)C(=O)N[C@H](C(=O)NCCc1nc(-c2nc(C(=O)NCCC[S+](C)C)cs2)cs1)[C@@H](C)O)C(OC1OC(CO)C(O)C(O)C1OC1OC(CO)C(O)C(OC(N)=O)C1O)c1cnc[nH]1` (some centres undefined), the survivor count (dose: 32.0 mg/kg/injection, schedule: Q01DX009 (ip), vehicle: saline) is 10 of 10.

Turning to `Cc1cc(=O)n2c3c(c4c(cc13)c(CN(C)C)cc(=O)n4C)OC2`, the survivor count is reported as 3 of 10 (dose: 100.0 mg/kg/injection, schedule: Q04DX002 (ip), vehicle: saline with Tween-80) and 0 of 10 (dose: 200.0 mg/kg/injection, schedule: Q04DX002 (ip), vehicle: saline with Tween-80).

Consider `CC1C(=O)CCC2(C)C1CCC1CC3CC12CCC3(O)CO` (centres undefined), for which the survivor count is recorded as 10 of 10 (dose: 200.0 mg/kg/injection, schedule: Q04DX002 (ip), vehicle: saline + alcohol) and 9 of 10 (dose: 400.0 mg/kg/injection, schedule: Q04DX002 (ip), vehicle: saline + alcohol).

As to `CCOC(=O)C1C2OC(=O)C(C(=O)C2CN(CCCl)CCCl)C1C1CC=C(CC2=CCC(C3C4C(=O)OC(C(CN(CCCl)CCCl)C4=O)C3C(=O)OCC)CC2)CC1` (centres undefined), the T/C by setting is: under setting [1], 132 % of control; (dose: 25.0 mg/kg/injection, schedule: Q04DX003 (ip), vehicle: Klucel (hydroxypropylcellulose) (HPC)) 139 % of control; (dose: 50.0 mg/kg/injection, schedule: Q04DX003 (ip), vehicle: Klucel (hydroxypropylcellulose) (HPC)) 142 % of control. In addition, the survivor count (dose: 400.0 mg/kg/injection, schedule: Q04DX003 (ip), vehicle: Klucel (hydroxypropylcellulose) (HPC)) was 9 of 10.

In the case of `O=[N+]([O-])/C=C\c1ccc2c(c1)OCO2`, the survivor count under setting [1] is 10 of 10.

In the case of `O=c1[nH]c(=O)n(C2CC(O)C(CO)O2)cc1F` (centres undefined), under “dose: 80.0 mg/kg/injection, schedule: Q07DX003 (ip), vehicle: saline”, the T/C is 145 % of control.

Take `CN(C)C=O`: the survivor count by setting is: (dose: 200.0 mg/kg/injection, schedule: Q04DX002 (ip), vehicle: saline) 10 of 10; (dose: 3200.0 mg/kg/injection, schedule: Q04DX002 (ip), vehicle: saline) 6 of 10.

Regarding `O=C([O][Hg][CH2]C1COC([CH2][Hg][O]C(=O)c2ccccc2)CO1)c1ccccc1` (centres undefined), the survivor count runs as follows: (dose: 150.0 mg/kg/injection, schedule: Q04DX003 (ip), vehicle: saline with Tween-80) 0 of 10; (dose: 300.0 mg/kg/injection, schedule: Q04DX003 (ip), vehicle: saline with Tween-80) 0 of 10.

`O=C(O)c1ccc(C(=O)O)c(C(=O)O)c1.[NH-]C1CCCCC1[NH-].[Pt+2]`: the T/C runs as follows: (dose: 6.0 mg/kg/injection, schedule: Q01DX004 (ip), vehicle: sodium bicarbonate) 126 % of control; (dose: 21.0 mg/kg/injection, schedule: Q04DX002 (ip), vehicle: sodium bicarbonate) 143 % of control; (dose: 30.0 mg/kg/injection, schedule: Q04DX004 (iv), vehicle: sodium bicarbonate) 135 % of control. Besides, the survivor count is on record as 10 of 10 (dose: 13.2 mg/kg/injection, schedule: Q01DX001 (ip), vehicle: saline); 10 of 10 (dose: 19.8 mg/kg/injection, schedule: Q01DX001 (iv), vehicle: saline); 10 of 10 (dose: 29.6 mg/kg/injection, schedule: Q01DX001 (iv), vehicle: saline); 9 of 10 (dose: 44.4 mg/kg/injection, schedule: Q01DX001 (ip), vehicle: saline); 10 of 10 on day 7 (dose: 56.0 mg/kg/injection, schedule: Q04DX002 (ip), vehicle: sodium bicarbonate); 10 of 10 (dose: 66.7 mg/kg/injection, schedule: Q01DX001 (ip), vehicle: saline). Further, the survivor count is, setting by setting: (dose: 66.7 mg/kg/injection, schedule: Q01DX001 (iv), vehicle: saline) 10 of 10; (dose: 90.0 mg/kg/injection, schedule: Q04DX002 (ip), vehicle: sodium bicarbonate) 5 of 12 on day 7; (dose: 100.0 mg/kg/injection, schedule: Q01DX001 (ip), vehicle: saline) 1 of 10; (dose: 100.0 mg/kg/injection, schedule: Q01DX001 (iv), vehicle: saline) 10 of 10.

Turning to `COC1C(O)C(C)OC(OC2C(Oc3cccc4c(O)c5c(=O)oc6ccc(C)c7c(=O)oc(c34)c5c67)OC(C)C(O)C2O)C1O` (centres undefined), the survivor count by setting is: (dose: 200.0 mg/kg/injection, schedule: Q04DX002 (ip), vehicle: Klucel (hydroxypropylcellulose) (HPC)) 0 of 10 and 6 of 10; (dose: 200.0 mg/kg/injection, schedule: Q04DX003 (ip), vehicle: Klucel (hydroxypropylcellulose) (HPC)) 0 of 10.

Turning to `O=[N+]([O-])O.[Ga]`, the survivor count is given as 12 of 12 (dose: 100.0 mg/kg/injection, schedule: Q01DX005 (ip), vehicle: saline); 7 of 8 (dose: 200.0 mg/kg/injection, schedule: Q01DX005 (ip), vehicle: saline); 10 of 10 (dose: 200.0 mg/kg/injection, schedule: Q04DX003 (ip), vehicle: saline).

Take `COc1cc([C@@H]2c3cc4c(cc3[C@@H](OC3OC5CO[C@@H](c6cccs6)OC5C(O)C3O)[C@H]3COC(=O)[C@H]23)OCO4)cc(OC)c1O` (some centres undefined): under “dose: 20.0 mg/kg/injection, schedule: Q03DX002 (ip), vehicle: other”, the survivor count is recorded as 8 of 8 on day 10.
